Source: PubChem BioAssay AID540276 (National Center for Advancing Translational Sciences (NCATS), 2011)
Out of some 300,000 compounds screened, about 5,400 (1.8%) were called active. Inconclusive results, whose numbers are uncertain, are shown with a selection of clear calls. The call rests on the fitted dose curve; tested in HEK293 cells. Potencies beside an inconclusive call are fits to weak or partial responses and may not hold up.

experiment: qHTS for inhibitors of binding or entry into cells for Marburg Virus; conditions: Marburg virus pseudotyped entry inhibition, cell reporter; activity change, negative = inhibition: at 37.8 µM (top of the series) unless noted
On the % scale 0 is the no-effect control and ±100 the full control effect; potency means the concentration at half of the fitted maximal effect.

| Structure (SMILES) | Potency | activity change, negative = inhibition |
| --- | --- | --- |
| COC(=O)c1cc(=O)nc2sc3ccccc3n12 | inconclusive: 0.0891 µM [inhibitor, full curve, poor fit] |  |
| Cc1ccc(CN(CC(O)COc2cccc3[nH]cc(C)c23)C(C)(C)C)cc1 (stereo not given) |  | inactive: -9.74% |
| CCOC(=O)C1=C(c2ccccc2)NC(SCC)=C(C#N)C1c1cccnc1 (stereo not given) | inconclusive: 35.5 µM [inhibitor, single point] |  |
| O=C(/C=C/c1cccc(F)c1)N1CCN(c2ccccn2)CC1 |  | inactive: 12.3% |
| CCCCCCOc1ccc(CN2CCN(CC)CC2)cc1 | inconclusive: 20.6 µM [inhibitor, single point] |  |
| NS(=O)(=O)c1ccc(CCNC(=O)c2ccc3c(c2)N(Cc2ccccc2)CCS3)cc1 |  | inactive: 0.418% [at 46.1 µM] |
| CC(C)(C)OC(=O)NCCC(=O)N/N=C/c1cccc2cccnc12 | inconclusive: 12.6 µM [inhibitor, single point] |  |
| CCc1ccc(CN(Cc2cn[nH]c2-c2ccc(OC)cc2)C(=O)Nc2cc(Cl)ccc2OC)cc1 |  | inactive: -23% [at 46.1 µM] |
| CCN(CC)S(=O)(=O)c1ccc(C(=O)Nc2cccc(C)c2)cc1 |  | inactive: 3.91% |
| N#C/C(=C(/O)c1ccco1)c1nc2ccccc2[nH]1 | inconclusive: 3.55 µM [inhibitor, single point] |  |
| FC(F)(F)c1nc(N2CCCC2)ncc1-c1nnnn1-c1ccc(Cl)cc1 | inconclusive: 35.5 µM [inhibitor, single point] |  |
| CCOc1cc2c(cc1C=O)OC(C)C2 (stereo not given) |  | inactive: 11.1% [at 46.1 µM] |
| CCN1C(=O)/C(=C\C(=O)c2cccs2)c2cc(Br)ccc21 | inconclusive: 7.94 µM [inhibitor, partial curve, poor fit] |  |
| CN(CCc1cn[nH]c1)Cc1nc(Cc2ccccc2)no1 | inconclusive: 5.62 µM [activator, single point] |  |
| O=C(NCc1ccccc1)C(c1ccc(F)cc1)N(C(=O)c1csnn1)C1CCCC1 (stereo not given) | inconclusive: 6.31 µM [inhibitor, single point] |  |
| CCN(CC)C(=O)Cn1c(=O)n(Cc2ccc(C(=O)NCCc3ccc(OC)c(OC)c3)cc2)c(=O)c2ccccc21 | inconclusive: 3.16 µM [activator, single point] |  |
| C/C(N)=C(/C#N)C(=O)CSc1nnc(Cc2ccccc2F)n1N | inactive |  |
| CCCc1cc(N2CCCC(C(=O)Nc3ccc(OC)cc3OC)C2)n2ncnc2n1 (stereo not given) | inconclusive: 14.6 µM [inhibitor, single point] |  |
| O=c1c(-c2ccc(O)cc2)coc2cc(OC3OC(CO)C(O)C(O)C3O)cc(O)c12 (stereo not given) | inconclusive: 1.16 µM [inhibitor, single point] |  |
| Fc1cccc(COc2ccccc2CNc2ccccc2)c1 | inconclusive: 22.4 µM [inhibitor, single point] |  |
| CCN(Cc1nc(-c2ccc(OC)cc2)no1)C(=O)c1ccc2c(c1)OCO2 | inconclusive: 7.08 µM [inhibitor, full curve, poor fit] |  |
| Cc1ccc(S(=O)(=O)NN2C(=O)/C(=C/c3ccc(F)cc3)SC2=S)cc1 | inconclusive: 6.31 µM [inhibitor, single point] |  |
| Clc1ccccc1OCCn1nnc2ccccc21 | inconclusive: 1.12 µM [activator, full curve, poor fit] |  |
| Cc1cc(=O)oc2cc(OCC(=O)OCC(=O)NC(C)C)ccc12 | inconclusive: 2 µM [inhibitor, single point] |  |

| Structure (SMILES) | Potency | activity change, negative = inhibition |
| --- | --- | --- |
| COc1ccc(C(=O)Nc2cccc(N(C)S(C)(=O)=O)c2)cc1OC |  | inactive: 2.04% |
| Cc1ccc(NC(=O)Nc2ccc(S(N)(=O)=O)cc2)cc1 | inconclusive: 15.8 µM [inhibitor, partial curve, poor fit] |  |
| CN(CCC(=O)Nc1ccc(Cl)cc1)Cc1ccccc1 | inconclusive: 22.4 µM [inhibitor, single point] |  |
| Cc1cc(C)n(-c2nc3ccccc3nc2Nc2cccc(C)c2C)n1 |  | inactive: 18.1% [at 46.1 µM] |
| CC1CCC2(CC1)N=C(N)Nc1nc3ccccc3n12 (stereo not given) | inconclusive: 5.8 µM [inhibitor, partial curve, poor fit] |  |
| CCc1cccc(C)c1NC(=S)NCc1ccc2c(c1)cc(C)n2C | inconclusive: 29.1 µM [inhibitor, single point] |  |
| COC(=O)c1ccc(CN2CCN(Cc3ccc(C(=O)OC)o3)CC2)o1 |  | inactive: -1.22% |
| CC1CSc2nc3sc4c(c3c(=O)n21)CCCC4 (stereo not given) | inconclusive: 0.1 µM [activator, full curve, poor fit] |  |
| Cn1cnnc1Sc1ccc(/C=C(\CCC(=O)O)c2nc3ccccc3s2)cc1[N+](=O)[O-] |  | inactive: 8.5% |
| CC(C)(C)c1nn2cnnc2n(/N=C/c2ccc(O)cc2)c1=O | inconclusive: 8.91 µM [activator, partial curve, poor fit] |  |
| O=c1[nH]c(=S)n(-c2cccc(C(F)(F)F)c2)c(O)c1C=NCCN1CCNCC1 | inconclusive: 3.55 µM [inhibitor, partial curve, poor fit] |  |
| CC1(C)CC2(C)OC(=N)C1(C#N)C2(C#N)C#N (stereo not given) | inconclusive: 35.5 µM [inhibitor, partial curve, poor fit] |  |
| Cc1cc(C)cc(NS(=O)(=O)c2ccc3c(c2)c(=O)n(C)c(=O)n3C)c1 | inconclusive: 18.3 µM [inhibitor, partial curve] |  |
| CCN(CC)CCNC(=O)C1(c2ccccc2)CCCCC1 | inconclusive: 25.1 µM [inhibitor, single point] |  |
| CCOC(=O)C(=O)Cc1cccnn1 | inconclusive: 7.94 µM [inhibitor, partial curve, poor fit] |  |
| Cc1cccn2c(=O)c3cc(S(=O)(=O)c4ccc(F)cc4)c(=N)n(Cc4ccco4)c3nc12 | inconclusive: 12.6 µM [inhibitor, partial curve] |  |
| CC(C)c1ccc(O)c(NC(=O)c2ncn[nH]2)c1 |  | inactive: -4.56% |
| O=C(O)c1ccc(Cl)c(NCc2cccnc2)c1 |  | inactive: 0.976% [at 46.1 µM] |
| CS(=O)(=O)N(CC(O)Cn1c2ccccc2c2ccccc21)c1cccc2ccccc12 (stereo not given) | inconclusive: 35.5 µM [inhibitor, single point] |  |
| CCC(CC)NC(=O)c1cc2c(C)nn(Cc3ccccc3Cl)c2s1 | inconclusive: 3.16 µM [inhibitor, single point] |  |
| Cc1ccc(C)c(N2CN(Cc3ccco3)CNC2=S)c1 |  | inactive: 14.1% |
| O=C(NCc1ccc(Cl)cc1)c1cc(=O)[nH]c2ccc(S(=O)(=O)N3CCOCC3)cc12 | inconclusive: 35.5 µM [activator, single point] |  |
| COc1ccc(S(=O)(=O)NCCC(C)C)cc1C |  | inactive: 1.91% |
| CCc1c(C)nc(N)n2c(SCC(=O)Nc3ccccc3)nnc12 | inconclusive: 18.3 µM [activator, single point] |  |

Shown with tabs: 19 of the compounds above
Structure (SMILES)	Potency	activity change, negative = inhibition
COc1ccc(C(=O)Nc2cccc(N(C)S(C)(=O)=O)c2)cc1OC		inactive: 2.04%
Cc1ccc(NC(=O)Nc2ccc(S(N)(=O)=O)cc2)cc1	inconclusive: 15.8 µM [inhibitor, partial curve, poor fit]	
CN(CCC(=O)Nc1ccc(Cl)cc1)Cc1ccccc1	inconclusive: 22.4 µM [inhibitor, single point]	
CC1CCC2(CC1)N=C(N)Nc1nc3ccccc3n12 (stereo not given)	inconclusive: 5.8 µM [inhibitor, partial curve, poor fit]	
CCc1cccc(C)c1NC(=S)NCc1ccc2c(c1)cc(C)n2C	inconclusive: 29.1 µM [inhibitor, single point]	
CC1CSc2nc3sc4c(c3c(=O)n21)CCCC4 (stereo not given)	inconclusive: 0.1 µM [activator, full curve, poor fit]	
Cn1cnnc1Sc1ccc(/C=C(\CCC(=O)O)c2nc3ccccc3s2)cc1[N+](=O)[O-]		inactive: 8.5%
CC(C)(C)c1nn2cnnc2n(/N=C/c2ccc(O)cc2)c1=O	inconclusive: 8.91 µM [activator, partial curve, poor fit]	
O=c1[nH]c(=S)n(-c2cccc(C(F)(F)F)c2)c(O)c1C=NCCN1CCNCC1	inconclusive: 3.55 µM [inhibitor, partial curve, poor fit]	
CC1(C)CC2(C)OC(=N)C1(C#N)C2(C#N)C#N (stereo not given)	inconclusive: 35.5 µM [inhibitor, partial curve, poor fit]	
CCN(CC)CCNC(=O)C1(c2ccccc2)CCCCC1	inconclusive: 25.1 µM [inhibitor, single point]	
CCOC(=O)C(=O)Cc1cccnn1	inconclusive: 7.94 µM [inhibitor, partial curve, poor fit]	
CC(C)c1ccc(O)c(NC(=O)c2ncn[nH]2)c1		inactive: -4.56%
CS(=O)(=O)N(CC(O)Cn1c2ccccc2c2ccccc21)c1cccc2ccccc12 (stereo not given)	inconclusive: 35.5 µM [inhibitor, single point]	
CCC(CC)NC(=O)c1cc2c(C)nn(Cc3ccccc3Cl)c2s1	inconclusive: 3.16 µM [inhibitor, single point]	
Cc1ccc(C)c(N2CN(Cc3ccco3)CNC2=S)c1		inactive: 14.1%
O=C(NCc1ccc(Cl)cc1)c1cc(=O)[nH]c2ccc(S(=O)(=O)N3CCOCC3)cc12	inconclusive: 35.5 µM [activator, single point]	
COc1ccc(S(=O)(=O)NCCC(C)C)cc1C		inactive: 1.91%
CCc1c(C)nc(N)n2c(SCC(=O)Nc3ccccc3)nnc12	inconclusive: 18.3 µM [activator, single point]	

Remaining list, next part:

| Structure (SMILES) | Potency | activity change, negative = inhibition |
| --- | --- | --- |
| Cc1c(Br)c(C(F)(F)F)nn1CC(=O)NCc1ccco1 | inconclusive: 2.82 µM [inhibitor, full curve, poor fit] |  |
| COC(=O)CSc1nnc(-c2ccc(OC)cc2OC)o1 |  | inactive: 10.2% |
| CCCCn1cc2c(c1-c1ccc(Cl)cc1)c(=O)n(C)c(=O)n2C | inconclusive: 11.2 µM [inhibitor, partial curve, poor fit] |  |
| CC1(C)CC(=O)C(C=Nc2ccc3c(c2)OCO3)=C(O)C1 |  | inactive: 2.37% |
| COc1cc(OC)c(Nc2nc3ccc(C(=O)c4ccccc4)cc3n3c(C)nnc23)cc1Cl |  | inactive: 1.2% [at 46.1 µM] |
| COc1ccc(C(=O)CSc2ccc(-c3ccco3)nn2)cc1 | inconclusive: 0.794 µM [activator, full curve, poor fit] |  |
| CC(=O)OCC(OC(C)=O)C(OC(C)=O)C(OC(C)=O)C(=O)Nc1ccccc1 (stereo not given) | inconclusive: 35.5 µM [inhibitor, single point] |  |
| CCCn1ncc(CN2CCN(Cc3ccc(C)o3)C(CCO)C2)c1C (stereo not given) | inconclusive: 2.24 µM [activator, full curve, poor fit] |  |
| COC(=O)[C@@H]1CC[C@H](C)[C@@H](c2ccc(C)cc2)N1C(=O)c1ccc(/C=N\OC[C@@H]2O[C@H](c3ccccc3)C=C[C@@H]2Oc2ccc(OC)cc2)cc1 |  | inactive: -6.58% [at 14.2 µM] |
| Cc1noc(C)c1C(=O)Nc1ccc2ccccc2c1 |  | inactive: 5.45% [at 46.1 µM] |
| CCOc1cc(CN2CCc3c([nH]c4ccccc34)C2)ccc1OC | inconclusive: 35.5 µM [inhibitor, single point] |  |
| COc1ccc(-c2noc(-c3ccccc3C(=O)NCc3ccco3)n2)cc1 | inconclusive: 35.5 µM [inhibitor, single point] |  |
| Cc1ccc(C(=O)OCC(=O)N(C)c2ccccc2)cc1C |  | inactive: 0.413% [at 46.1 µM] |
| COc1ccc(C2SCC(=O)N2c2c(C)n(C)n(-c3ccccc3)c2=O)cc1OC (stereo not given) | inconclusive: 23.1 µM [inhibitor, single point] |  |
| COc1ccc(OC)c(-n2c(=S)[nH]c3cc(C(=O)N4CCN(c5ccccc5)CC4)ccc3c2=O)c1 |  | inactive: -0.137% |
| O=C(O)CNC(=O)[C@@H](CS)Cc1ccccc1 |  | inactive: 4.01% |
| O=C(NCc1ccc(Cl)cc1)C(=O)Nc1nccs1 |  | inconclusive: 24.9% [activator] [at 46.1 µM] |
| CN(C)c1ccc(N2CN=C3SCC(=O)N3C2)cc1 |  | inactive: -34.4% |
| CCN(CC)C(=O)CNC(=O)c1nn(-c2ccc(OC)c(Cl)c2)c(=O)c2ccccc12 | inconclusive: 0.794 µM [inhibitor, partial curve, poor fit] |  |
| CCCN1C(=O)c2ccc(C(=O)NC3=NCCS3)cc2C1=O |  | inactive: 5.74% |
| CN(C)CCNC(=O)c1cccc2nc3cccc(F)c3nc12 | inconclusive: 0.224 µM [inhibitor, full curve, poor fit] |  |
| O=C(COc1cccc(Br)c1)N/N=C1\CCSC1 | inconclusive: 15.8 µM [activator, single point] |  |
